PubChem BioAssay AID504793 | Drosophila RNAi Screening Center | 2011
The screen tested about 23,000 reagents; shown is a random part of those that have a named target and a result. Over the whole deposit, 62 (0.27%) were called active. 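Calls come from follow-up tests whose scores are not deposited, so confirmed genes may have low counts here; counts are not normalised per plate.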 The raw values are shown without normalisation. Reagent sequences are not shown.

- Assay: 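Genes required for cells to halt at G2/M after double-strand DNA breaks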 (primary screen)
- Cells: Drosophila S2R+ cells
- Knock-down reagent: long dsRNA against Drosophila genes, about 0.25 µg dsRNA per well
- Time to read-out: 4 days of dsRNA, then 4 hours of drug before read-out
- Treatment: doxorubicin 0.5 µM for 4 hours to cause double-strand breaks, in cells also given a low, harmless dose of dsRNA against nbs to sensitise the assay
- Measured: 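Mitotic index as the number of phospho-histone H3-positive cells in each well following doxorubicin, given as raw counts without normalisation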
- Direction: mitotic cells: higher = more cells in mitosis, weaker G2 arrest
- Rule for the call: 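a call needs confirmation in secondary tests, with other dsRNAs and a check of mitotic timing without damage, not just a high primary count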
- Meaning of the calls: active = confirmed in follow-up tests; inactive = not confirmed

For CG13311 [DRSC09982], what was measured?
mitotic cells, replicate 1: 5; Call: inactive

How did the screen score corto [DRSC22988]?
mitotic cells, replicate 1: 12; Call: inactive

Which result is listed for corto [DRSC25778]?
mitotic cells, replicate 1: 1; Call: inactive

How did the screen score Lsp1gamma (Larval serum protein 1 gamma) [DRSC08672]?
mitotic cells, replicate 1: 3; Call: inactive

What did the screen give for Lsp1gamma (Larval serum protein 1 gamma) [DRSC25710]?
mitotic cells, replicate 1: 3; Call: inactive

What is on record for CG17816 [DRSC15277]?
mitotic cells, replicate 1: 5; mitotic cells, replicate 2: 13; Call: inactive

Which result is listed for CG17816 [DRSC29783]?
mitotic cells, replicate 1: 12; Call: inactive

What did the screen give for beta4GalNAcTB (beta1,4-N-acetylgalactosaminyltransferase B) [DRSC14869]?
mitotic cells, replicate 1: 10; Call: inactive

Which result is listed for Ir10a (Ionotropic receptor 10a) [DRSC18891]?
mitotic cells, replicate 1: 5; Call: inactive

With Ir10a (Ionotropic receptor 10a) [DRSC19478], what was measured?
mitotic cells, replicate 1: 8; Call: inactive

For Ir10a (Ionotropic receptor 10a) [DRSC19479], what does the deposit list?
mitotic cells, replicate 1: 18; Call: inactive

Which result is listed for schlank [DRSC18102]?
mitotic cells, replicate 1: 7; Call: inactive

With schlank [DRSC18313], what was measured?
mitotic cells, replicate 1: 8; Call: inactive

Which result is listed for nudE [DRSC09000]?
mitotic cells, replicate 1: 13; Call: inactive

Which result is listed for nudE [DRSC10962]?
mitotic cells, replicate 1: 76; Call: inactive

What did the screen give for nudE [DRSC30057]?
mitotic cells, replicate 1: 5; Call: inactive

How did the screen score CG34330 [DRSC20043]?
mitotic cells, replicate 1: 39; Call: inactive

For CG34330 [DRSC29637], what was measured?
mitotic cells, replicate 1: 14; Call: inactive

With RpL34a (Ribosomal protein L34a) [DRSC15964], what does the deposit list?
mitotic cells, replicate 1: 7; Call: inactive

For Zw (Zwischenferment) [DRSC20303], what does the deposit list?
mitotic cells, replicate 1: 7; Call: inactive

What is on record for Zw (Zwischenferment) [DRSC27667]?
mitotic cells, replicate 1: 5; Call: inactive

What is on record for Tl (Toll) [DRSC16885]?
mitotic cells, replicate 1: 5; Call: inactive

What is on record for Chd1 (Chromodomain-helicase-DNA-binding protein 1) [DRSC00745]?
mitotic cells, replicate 1: 5; Call: inactive

With Ms (Myosuppressin) [DRSC16041], what does the deposit list?
mitotic cells, replicate 1: 4; Call: inactive

Which result is listed for Ms (Myosuppressin) [DRSC29774]?
mitotic cells, replicate 1: 9; Call: inactive

Which result is listed for CG10984 [DRSC09817]?
mitotic cells, replicate 1: 9; Call: inactive

For CG10984 [DRSC28387], what does the deposit list?
mitotic cells, replicate 1: 12; Call: inactive

How did the screen score Sps1 (Selenophosphate synthetase 1) [DRSC07549]?
mitotic cells, replicate 1: 9; Call: inactive

Which result is listed for Met (Methoprene-tolerant) [DRSC20284]?
mitotic cells, replicate 1: 14; Call: inactive

With Met (Methoprene-tolerant) [DRSC27106], what was measured?
mitotic cells, replicate 1: 4; Call: inactive

What is on record for CG42383 [DRSC21733]?
mitotic cells, replicate 1: 9; Call: inactive

For Fur1 (Furin 1) [DRSC13707], how do the results read?
mitotic cells, replicate 1: 12; Call: inactive

For Fur1 (Furin 1) [DRSC16676], how do the results read?
mitotic cells, replicate 1: 9; Call: inactive

Which result is listed for lncRNA:bxd (bithoraxoid) [DRSC13176]?
mitotic cells, replicate 1: 41; mitotic cells, replicate 2: 11; Call: inactive

What is on record for lncRNA:bxd (bithoraxoid) [DRSC28062]?
mitotic cells, replicate 1: 7; mitotic cells, replicate 2: 5; Call: inactive

With lncRNA:bxd (bithoraxoid) [DRSC39127], what was measured?
mitotic cells, replicate 1: 9; Call: inactive

4 entries from above, arranged by “mitotic cells, replicate 1”, highest first:
nudE [DRSC10962]: mitotic cells, replicate 1 = 76; Call = inactive
CG34330 [DRSC20043]: mitotic cells, replicate 1 = 39; Call = inactive
CG34330 [DRSC29637]: mitotic cells, replicate 1 = 14; Call = inactive
nudE [DRSC30057]: mitotic cells, replicate 1 = 5; Call = inactive
